For twelve molecules, binding results are on record in article PMC9436328.

By UniProt entry, the sequences of proteins in these tests, tags left out. Residues count along the entry.
UniProt D0NPN8, residues 22-147: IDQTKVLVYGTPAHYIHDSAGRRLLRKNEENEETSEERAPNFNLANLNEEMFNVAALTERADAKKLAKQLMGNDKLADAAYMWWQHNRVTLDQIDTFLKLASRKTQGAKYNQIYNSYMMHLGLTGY
UniProt D0MZL5, residues 25-144: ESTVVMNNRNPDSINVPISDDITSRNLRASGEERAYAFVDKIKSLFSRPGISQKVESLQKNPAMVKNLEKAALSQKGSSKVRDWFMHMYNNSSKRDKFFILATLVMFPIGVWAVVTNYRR
UniProt D0N4E0, residues 23-170: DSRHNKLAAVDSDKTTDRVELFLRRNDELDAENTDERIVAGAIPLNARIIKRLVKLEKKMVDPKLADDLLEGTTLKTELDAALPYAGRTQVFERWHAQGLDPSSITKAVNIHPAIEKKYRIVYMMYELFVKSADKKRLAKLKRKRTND
UniProt D0N6E1, residues 21-162: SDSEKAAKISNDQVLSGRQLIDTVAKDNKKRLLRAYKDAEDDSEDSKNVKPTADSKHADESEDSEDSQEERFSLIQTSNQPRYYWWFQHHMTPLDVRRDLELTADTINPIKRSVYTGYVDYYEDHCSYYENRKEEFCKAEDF
UniProt D0NB60, residues 25-165: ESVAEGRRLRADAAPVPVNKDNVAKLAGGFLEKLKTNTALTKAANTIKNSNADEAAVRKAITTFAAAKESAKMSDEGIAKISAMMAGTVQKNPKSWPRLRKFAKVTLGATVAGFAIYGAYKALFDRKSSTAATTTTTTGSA
UniProt D0NQC3, residues 20-213: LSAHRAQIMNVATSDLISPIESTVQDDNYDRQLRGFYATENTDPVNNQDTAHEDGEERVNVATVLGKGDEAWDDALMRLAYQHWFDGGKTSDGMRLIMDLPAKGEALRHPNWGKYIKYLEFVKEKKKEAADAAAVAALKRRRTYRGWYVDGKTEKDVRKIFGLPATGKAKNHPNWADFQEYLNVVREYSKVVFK
UniProt D0N4K2, residues 20-254: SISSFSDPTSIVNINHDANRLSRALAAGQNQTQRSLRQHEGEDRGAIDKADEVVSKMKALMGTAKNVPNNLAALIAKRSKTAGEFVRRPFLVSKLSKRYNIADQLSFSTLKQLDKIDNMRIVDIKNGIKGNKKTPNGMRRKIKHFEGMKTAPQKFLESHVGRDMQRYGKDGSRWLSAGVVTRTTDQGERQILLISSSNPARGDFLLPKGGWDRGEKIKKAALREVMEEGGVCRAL
UniProt D0N8M5, residues 18-170: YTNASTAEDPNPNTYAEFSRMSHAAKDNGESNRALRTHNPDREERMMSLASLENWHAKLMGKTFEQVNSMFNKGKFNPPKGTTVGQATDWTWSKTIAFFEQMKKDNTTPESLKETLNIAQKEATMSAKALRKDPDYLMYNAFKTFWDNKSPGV
UniProt D0N118, residues 24-240: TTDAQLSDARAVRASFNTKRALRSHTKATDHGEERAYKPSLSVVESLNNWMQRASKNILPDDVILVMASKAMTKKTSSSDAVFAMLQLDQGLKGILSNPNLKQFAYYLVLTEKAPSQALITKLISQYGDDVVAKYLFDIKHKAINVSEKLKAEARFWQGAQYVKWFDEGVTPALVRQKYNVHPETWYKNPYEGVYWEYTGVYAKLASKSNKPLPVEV
UniProt D0P3S7, residues 25-152: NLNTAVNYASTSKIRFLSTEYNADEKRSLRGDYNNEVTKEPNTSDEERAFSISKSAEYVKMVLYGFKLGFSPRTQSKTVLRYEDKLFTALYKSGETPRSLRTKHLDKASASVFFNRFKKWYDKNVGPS
UniProt D0NVS7, residues 34-349: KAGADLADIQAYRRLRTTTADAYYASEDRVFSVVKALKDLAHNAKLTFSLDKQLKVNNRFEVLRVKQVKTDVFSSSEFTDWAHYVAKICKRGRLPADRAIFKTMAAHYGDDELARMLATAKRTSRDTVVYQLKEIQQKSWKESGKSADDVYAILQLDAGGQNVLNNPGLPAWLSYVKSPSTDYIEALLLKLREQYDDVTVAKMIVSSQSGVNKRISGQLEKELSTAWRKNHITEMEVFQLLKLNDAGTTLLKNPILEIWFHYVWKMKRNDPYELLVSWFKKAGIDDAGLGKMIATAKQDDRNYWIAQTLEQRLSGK
UniProt P47998: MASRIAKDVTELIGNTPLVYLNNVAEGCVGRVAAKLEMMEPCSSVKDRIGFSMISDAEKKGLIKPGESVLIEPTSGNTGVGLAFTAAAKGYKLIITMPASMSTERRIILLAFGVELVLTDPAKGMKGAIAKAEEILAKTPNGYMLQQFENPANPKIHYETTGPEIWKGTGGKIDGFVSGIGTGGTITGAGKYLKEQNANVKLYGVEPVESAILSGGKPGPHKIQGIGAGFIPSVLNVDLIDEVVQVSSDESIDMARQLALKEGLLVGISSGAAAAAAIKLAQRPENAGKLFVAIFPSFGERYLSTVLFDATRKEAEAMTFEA
UniProt Q9XIC5: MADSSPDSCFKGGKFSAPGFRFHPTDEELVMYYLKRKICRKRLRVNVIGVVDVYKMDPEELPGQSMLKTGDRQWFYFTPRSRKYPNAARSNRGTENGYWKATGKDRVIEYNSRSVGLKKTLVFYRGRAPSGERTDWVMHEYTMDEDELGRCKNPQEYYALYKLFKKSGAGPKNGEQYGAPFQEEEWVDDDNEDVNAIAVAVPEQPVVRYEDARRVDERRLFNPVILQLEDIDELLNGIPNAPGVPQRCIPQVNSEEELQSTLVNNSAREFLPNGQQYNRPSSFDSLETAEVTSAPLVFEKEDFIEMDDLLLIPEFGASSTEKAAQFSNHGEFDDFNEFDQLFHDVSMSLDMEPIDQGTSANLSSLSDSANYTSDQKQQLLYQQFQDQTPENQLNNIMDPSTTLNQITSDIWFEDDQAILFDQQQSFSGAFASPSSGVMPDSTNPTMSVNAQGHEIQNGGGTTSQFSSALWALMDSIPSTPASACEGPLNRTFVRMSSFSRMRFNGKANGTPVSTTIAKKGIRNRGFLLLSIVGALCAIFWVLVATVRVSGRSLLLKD
UniProt Q96321: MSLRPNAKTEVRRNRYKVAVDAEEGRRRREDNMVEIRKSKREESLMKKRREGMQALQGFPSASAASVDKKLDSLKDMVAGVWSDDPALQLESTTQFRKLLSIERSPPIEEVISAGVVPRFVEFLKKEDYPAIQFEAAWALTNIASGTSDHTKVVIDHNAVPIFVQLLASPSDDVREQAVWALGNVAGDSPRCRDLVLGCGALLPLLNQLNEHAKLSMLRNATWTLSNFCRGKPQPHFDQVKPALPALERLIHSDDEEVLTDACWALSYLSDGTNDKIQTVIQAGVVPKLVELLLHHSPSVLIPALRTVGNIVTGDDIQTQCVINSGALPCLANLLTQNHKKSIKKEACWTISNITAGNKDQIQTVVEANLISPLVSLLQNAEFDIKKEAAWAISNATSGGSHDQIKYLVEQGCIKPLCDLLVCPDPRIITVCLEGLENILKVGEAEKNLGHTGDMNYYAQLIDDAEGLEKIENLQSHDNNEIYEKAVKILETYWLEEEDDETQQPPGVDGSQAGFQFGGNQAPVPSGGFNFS
UniProt P14713: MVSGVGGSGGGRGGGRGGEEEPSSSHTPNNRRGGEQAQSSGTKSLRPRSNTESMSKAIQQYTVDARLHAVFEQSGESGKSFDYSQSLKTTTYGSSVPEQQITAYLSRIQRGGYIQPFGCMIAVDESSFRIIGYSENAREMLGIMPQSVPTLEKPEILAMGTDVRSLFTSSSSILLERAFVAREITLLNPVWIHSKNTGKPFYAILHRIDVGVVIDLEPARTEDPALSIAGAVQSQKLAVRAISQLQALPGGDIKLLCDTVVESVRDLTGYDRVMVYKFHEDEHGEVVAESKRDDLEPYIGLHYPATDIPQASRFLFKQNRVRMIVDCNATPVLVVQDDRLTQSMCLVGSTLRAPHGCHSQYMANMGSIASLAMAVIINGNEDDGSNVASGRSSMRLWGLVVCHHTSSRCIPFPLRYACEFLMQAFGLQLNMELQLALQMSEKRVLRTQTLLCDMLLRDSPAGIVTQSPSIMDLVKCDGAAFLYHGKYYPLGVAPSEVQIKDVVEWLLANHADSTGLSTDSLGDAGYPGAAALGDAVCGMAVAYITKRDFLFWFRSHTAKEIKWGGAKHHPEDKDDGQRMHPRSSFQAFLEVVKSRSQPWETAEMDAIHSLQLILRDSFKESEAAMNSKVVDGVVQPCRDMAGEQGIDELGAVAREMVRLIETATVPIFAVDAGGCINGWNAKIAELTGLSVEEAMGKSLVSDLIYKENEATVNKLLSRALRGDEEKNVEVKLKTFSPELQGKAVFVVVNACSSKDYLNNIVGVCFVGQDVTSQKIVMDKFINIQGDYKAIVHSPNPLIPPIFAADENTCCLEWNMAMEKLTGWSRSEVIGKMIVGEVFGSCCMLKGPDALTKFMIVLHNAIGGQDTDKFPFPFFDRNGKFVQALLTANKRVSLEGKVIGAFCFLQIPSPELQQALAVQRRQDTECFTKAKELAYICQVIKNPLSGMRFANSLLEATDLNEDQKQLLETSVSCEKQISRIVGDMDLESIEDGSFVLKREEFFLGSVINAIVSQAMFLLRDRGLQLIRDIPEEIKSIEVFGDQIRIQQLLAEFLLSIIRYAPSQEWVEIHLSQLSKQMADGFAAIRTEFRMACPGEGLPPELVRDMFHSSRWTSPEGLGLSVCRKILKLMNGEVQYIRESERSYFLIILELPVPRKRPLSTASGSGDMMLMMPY
UniProt F4JL11: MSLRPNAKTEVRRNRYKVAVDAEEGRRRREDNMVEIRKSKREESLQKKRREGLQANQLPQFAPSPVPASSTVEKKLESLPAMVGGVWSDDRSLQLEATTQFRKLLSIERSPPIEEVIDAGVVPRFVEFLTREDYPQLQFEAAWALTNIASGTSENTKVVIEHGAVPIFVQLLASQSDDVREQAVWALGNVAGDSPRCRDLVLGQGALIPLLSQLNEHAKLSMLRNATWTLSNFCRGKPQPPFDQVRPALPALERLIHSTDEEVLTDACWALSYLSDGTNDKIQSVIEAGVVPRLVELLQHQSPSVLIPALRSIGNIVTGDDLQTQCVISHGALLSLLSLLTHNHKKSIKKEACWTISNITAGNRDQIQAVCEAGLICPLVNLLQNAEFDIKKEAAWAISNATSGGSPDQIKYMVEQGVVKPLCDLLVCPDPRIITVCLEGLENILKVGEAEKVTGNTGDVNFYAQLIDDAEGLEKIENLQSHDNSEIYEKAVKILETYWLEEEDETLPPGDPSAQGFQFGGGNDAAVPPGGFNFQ
UniProt Q9LKG8: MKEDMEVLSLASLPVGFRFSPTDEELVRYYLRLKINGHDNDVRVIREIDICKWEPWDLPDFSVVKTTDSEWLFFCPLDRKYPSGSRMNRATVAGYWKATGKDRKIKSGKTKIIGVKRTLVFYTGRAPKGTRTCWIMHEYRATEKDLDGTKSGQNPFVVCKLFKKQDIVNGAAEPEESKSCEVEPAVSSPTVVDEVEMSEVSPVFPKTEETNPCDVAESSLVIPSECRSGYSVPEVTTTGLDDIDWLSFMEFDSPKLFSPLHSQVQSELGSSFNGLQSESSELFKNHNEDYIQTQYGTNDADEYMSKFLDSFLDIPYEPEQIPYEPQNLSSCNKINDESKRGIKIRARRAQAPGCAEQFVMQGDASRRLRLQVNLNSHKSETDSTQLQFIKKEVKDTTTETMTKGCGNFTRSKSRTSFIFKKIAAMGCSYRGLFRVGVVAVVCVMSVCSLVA

These are yes or no findings as the source states them, for the method shown. Some entries that bind do so weakly or less than the wild type.

Holding throughout (experiment): two-hybrid
Experiment [1] addresses Pi14371 (Phytophthora infestans) (UniProt D0NPN8).
In experiment [2] the target is Pi03192 (Phytophthora infestans) (UniProt D0MZL5).
Experiment [3] concerns the target Pi22798 (Phytophthora infestans) (UniProt D0N4E0).
The target in experiment [4] is Pi06099 (Phytophthora infestans) (UniProt D0N6E1).
In experiment [5] the target is Pi09218 (Phytophthora infestans) (UniProt D0NB60).
Experiment [6] concerns the target Pi15287 (Phytophthora infestans) (UniProt D0NQC3).
For experiment [7], the target named is Pi06308 (Phytophthora infestans) (UniProt D0N4K2).
Experiment [8] deals with Pi07555 (Phytophthora infestans) (UniProt D0N8M5).
The target in experiment [9] is Pi04339 (Phytophthora infestans) (UniProt D0N118).
Experiment [10] addresses Pi21388 (Phytophthora infestans) (UniProt D0P3S7).
For experiment [11], the target named is Pi17316 (Phytophthora infestans) (UniProt D0NVS7).

Consider “AT4G14880, O-acetylserine(thiol)lyase (from UniProt P47998 1-322)”, for which, in [1], the binding result is “no binding”.
“AT1G34190, NAC domain containing protein 17 (from UniProt Q9XIC5 1-557)”: in [2], the binding result is “no binding”.
In the case of “AT3G06720, AtIMPA-1 importin-α (from UniProt Q96321 1-532)”, the binding result in experiment [3] is given as “no binding”.
As for FL AtPhyB (from UniProt P14713 1-1172), in experiment [4], the binding entry is “binds”.
Consider “AT4G16143, AtIMPA-2, importin α-isoform 2 (from UniProt F4JL11 1-535)”, for which the binding entry in experiment [3] was “no binding”.
Take “AT5G24590, AtTIP, TCV-interacting protein, AtNAC91 (from UniProt Q9LKG8 1-451)”: the binding entry in experiment [5] is “no binding”.

B1: AT5G24660, AtLSU2, response to low sulfur 2 (protein, UniProt Q9FIR9 1-94)
chain: MGKGGNYVTVAASEVDELRRKNGEMEKAVEEMKKEMLQLWRRTQVAEEAEERLCSQLAELEAESLDQARDYHSRIIFLMNELSRLSSDSASASP
As to B1, the binding result in experiment [6] is “no binding”.

B2: AT4G27060, AtTORTIFOLIA1, microtubule-associated protein (protein, UniProt Q9T041 1-864)
chain: MSTPTTSGSAAKPTRPARSSSLATRSCSNSGSLTSFQAMVELKQKILTSISKLADRDTYQIAVEDLEKTIQSLTPETLPMFLNCLYDSCSDPKPAVKKECLHLLSYVCSLHCDSTAAHLTKIIAQIVKRLKDSDSGVRDACRDTIGALSGIYLKGKEEGTNTGSASLAVGLFVKPLFEAMGEQNKVVQSGASMCMARMVESAASPPVTSFQKLCPRICKLLSNSSFLAKASLLPVVSSLSQVGAIAPQSLESLLESIHDCLGSTDWVTRKAAAETLTALASHSSGLIKEKTDSTITVLETCRFDKIKPVRESVTEALQLWKKISGKYVDGASDDSKLSASEQLGSEKNGEKRSNLADLMKKEASDGSTLSPDSASKGKGCFPEKAVGLLKKKAPVLSDKDFNPEFFQRLERRQSVEVVVPRRCKNNDEEESGLDDLNAMGSSNRLKNTQADDKQVKGRFDGNGSQARTSGDDKAGVVNGKETPGHHAPVSNTDNQSEGSFTSNRGNWSAIQRQLLQLERQQTNLMNMLQEFIGGSHDSMVTLEGRVRGLERIVEDMARDLSISSGRRANLTAGFGKYNSFANYPTGKYNGRAPGERGSQTDGAMRGRMWNSDMADDWFIPPHAASRNGQAGPRRSPRSEQYENEHMGNGRRGWDNKASGTIRFGEGPSARSVWQASKDEATLEAIRVAGEDGAVPRPTRVAVAPEAEAMGDDDNEGQERDPIWVSWSNAMHSLRVGDIDAAYAEVLCAGDQHLVIKLMDKTGPSLDQMSNEIANEALNFISQFLLDHSLYDICLSWSQQLLELVLQDGADTFGVPMELKTEILYNLQDACSTMDPPEDWEGPAPEQLVVQLASVWEIDLQQFDK
Turning to B2, the binding result in experiment [7] is given as “no binding”.

B3: AT5G28770, bZIP protein BZO2H3 (protein, UniProt B9DGI8 1-314)
chain: MEKVFSDEEISGNHHWSVNGMTSLNRSASEWAFNRFIQESSAAADDGESTTACGVSVSSPPNVPVDSEEYRAFLKSKLNLACAAVAMKRGTFIKPQDTSGRSDNGGANESEQASLASSKATPMMSSAITSGSELSGDEEEADGETNMNPTNVKRVKRMLSNRESARRSRRRKQAHLSELETQVSQLRVENSKLMKGLTDVTQTFNDASVENRVLKANIETLRAKVKMAEETVKRLTGFNPMFHNMPQIVSTVSLPSETSNSPDTTSSQVTTPEIISSGNKGKALIGCKMNRTASMRRVESLEHLQKRIRSVGDQ
For B3, the binding result in experiment [8] is recorded as “no binding”.

B4: AT3G58040, RING finger domain protein (protein, UniProt Q9M2P4 1-308)
chain: MAPGGSALKEVMESNSTGMDYEVKTAKVEVNNNKPTKPGSAGIGKYGIHSNNGVYELLECPVCTNLMYPPIHQCPNGHTLCSNCKLRVQNTCPTCRYELGNIRCLALEKVAESLEVPCRYQNLGCHDIFPYYSKLKHEQHCRFRPYTCPYAGSECSVTGDIPTLVVHLKDDHKVDMHDGCTFNHRYVKSNPHEVENATWMLTVFNCFGRQFCLHFEAFQLGMAPVYMAFLRFMGDENEAKKFSYSLEVGAHGRKLTWQGIPRSIRDSHRKVRDSQDGLIIPRNLALYFSGGDRQELKLRVTGRIWKEE
Take B4: the binding result in experiment [9] was “no binding”.

B5: AT3G10190, AtCML36, calmodulin-like 36 (protein, UniProt Q9SS31 1-209)
chain: MKLAKLIPKRFFIRSKDRSTVSKSPTAFSFGSASSSSGQDCKNSGGDGGGGSVTPTSILPEVPSPYSYVEILQAFKLIDRDNDGAVSRHDLESLLSRLGPDPLTEEEINVMLKEVDCDGDGTIRLEELASRVVSLDPARDSTELKETFEFFDADRDGLISADELLRVFSTIGDERCTLDDCKRMIADVDEDGDGFVCFTEFSRMMDLQR
In the case of B5, the binding entry in experiment [10] is “no binding”.

B6: AT1G14000, AtVIK, VH1-interacting kinase (protein, UniProt Q9XI87 1-438)
chain: MSSDSPAAGDGGEQAAAGTSVPSPSYDKQKEKARVSRTSLILWHAHQNDAAAVRKLLEEDPTLVHARDYDKRTPLHVASLHGWIDVVKCLLEFGADVNAQDRWKNTPLADAEGARKQKMIELLKSHGGLSYGQNGSHFEPKPVPPPIPKKCDWEIEPAELDFSNAAMIGKGSFGEIVKAYWRGTPVAVKRILPSLSDDRLVIQDFRHEVDLLVKLRHPNIVQFLGAVTERKPLMLITEYLRGGDLHQYLKEKGGLTPTTAVNFALDIARGMTYLHNEPNVIIHRDLKPRNVLLVNSSADHLKVGDFGLSKLIKVQNSHDVYKMTGETGSYRYMAPEVFKHRRYDKKVDVFSFAMILYEMLEGEPPFANHEPYEAAKHVSDGHRPTFRSKGCTPDLRELIVKCWDADMNQRPSFLDILKRLEKIKETLPSDHHWGLFTS
Turning to B6, the binding entry in experiment [11] was “no binding”.
